Only a part is listed here, and it is no random draw. For part of these data: At the low end of the ranking, values are background and their order means little. Some of the results follow. For part of these data: The source does not settle which construct or isoform was used.

Protein sequences, listed by entry. Tags and fused reporters are not part of them. Lines headed by an entry give the natural chain unless they say otherwise; changes in a name come on top.
UniProt P50549: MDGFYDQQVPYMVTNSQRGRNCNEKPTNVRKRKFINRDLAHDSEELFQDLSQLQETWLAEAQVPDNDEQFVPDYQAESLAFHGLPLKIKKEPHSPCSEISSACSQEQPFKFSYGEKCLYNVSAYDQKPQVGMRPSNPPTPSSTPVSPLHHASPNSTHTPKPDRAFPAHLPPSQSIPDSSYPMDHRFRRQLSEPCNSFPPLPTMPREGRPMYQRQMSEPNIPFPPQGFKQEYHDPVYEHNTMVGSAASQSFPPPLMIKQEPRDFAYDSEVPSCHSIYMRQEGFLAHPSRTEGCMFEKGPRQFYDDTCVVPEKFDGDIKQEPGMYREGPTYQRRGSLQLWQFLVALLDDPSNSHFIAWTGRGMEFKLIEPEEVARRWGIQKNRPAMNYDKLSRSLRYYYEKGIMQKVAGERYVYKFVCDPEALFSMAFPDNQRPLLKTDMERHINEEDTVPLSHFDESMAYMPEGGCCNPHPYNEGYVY
UniProt P32519: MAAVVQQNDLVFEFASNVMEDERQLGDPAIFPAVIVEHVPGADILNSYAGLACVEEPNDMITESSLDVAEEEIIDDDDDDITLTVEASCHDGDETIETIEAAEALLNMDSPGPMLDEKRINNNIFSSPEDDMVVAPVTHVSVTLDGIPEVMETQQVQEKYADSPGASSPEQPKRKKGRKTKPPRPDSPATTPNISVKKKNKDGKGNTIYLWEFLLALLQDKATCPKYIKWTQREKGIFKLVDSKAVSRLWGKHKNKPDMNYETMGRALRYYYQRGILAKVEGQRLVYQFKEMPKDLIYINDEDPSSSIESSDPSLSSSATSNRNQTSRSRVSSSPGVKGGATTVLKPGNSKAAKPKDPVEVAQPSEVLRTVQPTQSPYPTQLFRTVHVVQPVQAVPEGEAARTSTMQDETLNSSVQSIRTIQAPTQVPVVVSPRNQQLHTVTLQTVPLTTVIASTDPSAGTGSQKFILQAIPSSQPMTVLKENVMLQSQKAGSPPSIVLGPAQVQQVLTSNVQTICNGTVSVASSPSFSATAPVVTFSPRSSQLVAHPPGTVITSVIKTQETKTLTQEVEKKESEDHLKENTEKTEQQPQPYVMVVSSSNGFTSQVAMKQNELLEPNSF

Experiment in all cases: DAPPL (digital affinity profiling via proximity ligation, sequencing)
What all share (conditions): 10 mM Tris-HCl pH 7.5, 50 mM NaCl, 1 mM DTT, 4% glycerol, room temperature, 30 min; GST-TFs on glutathione beads, 16-mer random dsDNA library, 0.1% …; high values mean tight binding; double strand, one strand shown; scale: fold enrichment (6-mer frequency, TF over GST control)

Experiment [1] has as its target T1, ERG (UniProt P11308).
T1 sequence: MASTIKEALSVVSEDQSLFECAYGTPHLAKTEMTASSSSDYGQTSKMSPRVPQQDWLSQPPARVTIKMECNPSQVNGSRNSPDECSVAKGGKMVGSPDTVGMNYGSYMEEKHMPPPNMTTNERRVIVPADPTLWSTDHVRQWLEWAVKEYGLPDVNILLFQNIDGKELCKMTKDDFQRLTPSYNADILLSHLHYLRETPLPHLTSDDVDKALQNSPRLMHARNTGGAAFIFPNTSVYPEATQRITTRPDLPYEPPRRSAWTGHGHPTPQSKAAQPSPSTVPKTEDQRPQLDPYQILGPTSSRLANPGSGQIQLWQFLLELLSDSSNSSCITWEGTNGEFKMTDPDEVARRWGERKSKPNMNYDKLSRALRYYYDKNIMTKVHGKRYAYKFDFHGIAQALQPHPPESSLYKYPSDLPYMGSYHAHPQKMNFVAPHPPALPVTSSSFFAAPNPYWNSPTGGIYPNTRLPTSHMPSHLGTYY

In experiment [2] the target is T2, ETV4 (UniProt P43268).
T2 sequence: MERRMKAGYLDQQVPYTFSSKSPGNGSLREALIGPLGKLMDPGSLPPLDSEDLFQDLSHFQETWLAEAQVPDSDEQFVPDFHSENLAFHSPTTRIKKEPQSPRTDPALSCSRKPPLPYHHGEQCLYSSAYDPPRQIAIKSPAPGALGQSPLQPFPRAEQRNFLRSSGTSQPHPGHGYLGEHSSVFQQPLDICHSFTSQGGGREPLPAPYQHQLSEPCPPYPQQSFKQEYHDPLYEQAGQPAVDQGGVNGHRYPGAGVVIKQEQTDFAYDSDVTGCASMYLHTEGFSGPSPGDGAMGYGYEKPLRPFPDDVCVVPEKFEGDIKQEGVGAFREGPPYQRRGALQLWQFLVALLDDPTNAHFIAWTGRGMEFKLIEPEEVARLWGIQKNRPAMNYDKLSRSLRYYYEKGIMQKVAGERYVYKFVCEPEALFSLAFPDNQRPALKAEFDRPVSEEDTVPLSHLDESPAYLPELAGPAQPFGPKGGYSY

In experiment [3] the target is ETV1 (UniProt P50549).
For experiment [4], the target named is T3, ERF (UniProt P50548).
T3 sequence: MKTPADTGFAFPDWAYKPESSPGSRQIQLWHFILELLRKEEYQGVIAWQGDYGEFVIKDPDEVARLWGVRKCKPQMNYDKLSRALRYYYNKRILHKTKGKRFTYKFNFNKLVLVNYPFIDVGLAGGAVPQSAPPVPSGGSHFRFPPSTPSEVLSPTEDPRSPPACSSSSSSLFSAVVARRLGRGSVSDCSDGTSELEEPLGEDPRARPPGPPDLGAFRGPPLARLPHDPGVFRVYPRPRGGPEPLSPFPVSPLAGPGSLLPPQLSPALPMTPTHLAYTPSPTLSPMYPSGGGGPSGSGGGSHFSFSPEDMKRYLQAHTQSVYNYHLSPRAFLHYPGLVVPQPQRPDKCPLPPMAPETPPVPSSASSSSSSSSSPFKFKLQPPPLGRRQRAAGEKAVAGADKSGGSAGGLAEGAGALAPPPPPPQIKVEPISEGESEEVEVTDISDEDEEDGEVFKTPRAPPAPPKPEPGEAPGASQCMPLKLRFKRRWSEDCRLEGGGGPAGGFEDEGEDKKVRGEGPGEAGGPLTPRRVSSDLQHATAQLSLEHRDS

Experiment [5] deals with ELF1 (UniProt P32519).

With TGAAAA, the binding signal in experiment [1] was determined as 0.953; in experiment [2], 1.02; in experiment [3], 1.01.

With TCGCTT, the binding signal in experiment [1] turned out to be 1.18; in experiment [2], 1.22; in experiment [3], 1.24.

Regarding CCTAGA, the figures for the binding signal in experiment [1], in experiment [2] and in experiment [3] were 0.951, 0.978 and 0.982, respectively.

In the case of GATTCT, the binding signal turned out to be 1.21 in experiment [1], 1.2 in experiment [2] and 1.25 in experiment [3].

Take GATTTT: the binding signal in experiment [1] worked out at 1.12; in experiment [2] it was 1.08; in experiment [3] it was 1.17.

As to ATCTAA, the binding signal in experiment [1] was found to be 1.17; in experiment [2], 1.2; in experiment [3], 1.16.

For the sequence GCTGAT, the binding signal in experiment [1] worked out at 1.1; in experiment [2], 1.13; in experiment [3], 1.2; in experiment [4] it was 1.07.

As to TACTGA, the binding signal was 1.03 in experiment [1], 1.13 in experiment [5], 1.06 in experiment [2] and 1.02 in experiment [3].

As to ATGCAC, the binding signal is 1.2 in experiment [1], 1.39 in experiment [2] and 1.19 in experiment [3].

For TTTTTA, the results for the binding signal in experiment [1], in experiment [2] and in experiment [3] were 1.25, 1.19 and 1.32, respectively.

On to TTGGGT, for which the binding signal in experiment [1] worked out at 0.965; in experiment [2], 1.14; in experiment [3], 1.06.

As to CTGATA, the binding signal in experiment [1] came out at 1.1; in experiment [5] it was 1.21; in experiment [2], 1.14; in experiment [3] it was 1.13.

For the sequence TGCTGC, the binding signal is 0.996 in experiment [1], 1.21 in experiment [5], 1.29 in experiment [2] and 1.13 in experiment [3].

As for GGCCCC, the binding signal in experiment [1] worked out at 1.04; in experiment [2] it was 1.03; in experiment [3], 1.03; in experiment [4], 0.994.

On to TTAAAG, for which the binding signal in experiment [1] amounted to 1.1; in experiment [2], 1.06; in experiment [3] it was 1.15.

On to CAGAAT, for which the binding signal in experiment [1] is 0.99; in experiment [2] it was 0.973; in experiment [3] it was 1.04.

For TTGCAT, the binding signal in experiment [1] came to 1.37; in experiment [2], 1.47; in experiment [3] it was 1.5; in experiment [4] it was 1.37.

On to TTACGA, for which the binding signal in experiment [1] is 1.06; in experiment [2], 1.11; in experiment [3], 1.16.

For AAAAGT, the binding signal in experiment [1] worked out at 0.998; in experiment [2], 1.06; in experiment [3] it was 1.13; in experiment [4], 0.989.

As for ATGTAA, the binding signal in experiment [1] worked out at 1.29; in experiment [2], 1.28; in experiment [3], 1.27; in experiment [4], 1.18.

For TCTTAG, the binding signal in experiment [1] was found to be 1.15; in experiment [2] it was 1.25; in experiment [3] it was 1.25.

For CGAAAA, the binding signal in experiment [1] was 1.06; in experiment [5], 1.05; in experiment [2] it was 1.09; in experiment [3], 1.06.

In the case of TTATGA, the figures for the binding signal in experiment [1], in experiment [2] and in experiment [3] were 1.08, 1.18 and 1.17, respectively.

Consider ATATGC, for which the binding signal in experiment [1] came out at 1.13; in experiment [2] it was 1.14; in experiment [3], 1.11.

Consider CACTTA, for which the binding signal in experiment [1] was found to be 1.22; in experiment [5], 1.27; in experiment [2] it was 1.28; in experiment [3], 1.25.

Regarding TGGCTT, the binding signal in experiment [1] is 1.31; in experiment [2], 1.29; in experiment [3], 1.1.

Take CTAGCT: the binding signal in experiment [1] worked out at 1.3; in experiment [2], 1.23; in experiment [3], 1.24.

Turning to AATAGC, the binding signal in experiment [1] amounted to 1.12; in experiment [2], 1.13; in experiment [3], 1.13; in experiment [4] it was 1.25.

On to ACATTG, for which the binding signal in experiment [1] is 1.07; in experiment [2] it was 1.09; in experiment [3], 1.19; in experiment [4], 1.26.

TTCAGT: the binding signal was determined as 1.03 in experiment [1], 1.12 in experiment [2], 1.07 in experiment [3] and 1.09 in experiment [4].

For the sequence TAAAAC, the results for the binding signal in experiment [1], in experiment [2] and in experiment [3] were 1.18, 1.25 and 1.18, respectively.

With TGCACG, the binding signal in experiment [1] was found to be 1.03; in experiment [5], 1.16; in experiment [2], 1.12; in experiment [4] it was 1.11.

As for ATAAAT, the figures for the binding signal in experiment [1], in experiment [2] and in experiment [4] were 1.15, 1.18 and 1.19, respectively.

As for ATTCTA, the binding signal in experiment [1] stood at 1.23; in experiment [2] it was 1.21; in experiment [4], 1.32.

As for CGAATA, the binding signal in experiment [1] stood at 1.07; in experiment [5], 1.28; in experiment [2] it was 1.1; in experiment [4] it was 1.19.

As for CCCTGG, the results for the binding signal in experiment [1], in experiment [2] and in experiment [4] were 0.999, 1.24 and 1.24, respectively.

As for CGATTT, the binding signal in experiment [1] was found to be 1.17; in experiment [2], 1.18; in experiment [4], 1.09.

For the sequence ATGTAC, the binding signal was 1.11 in experiment [1], 1.4 in experiment [2] and 1.19 in experiment [4].

Regarding AAACCC, the binding signal in experiment [1] stood at 1.25; in experiment [2], 1.22; in experiment [4], 1.28.

As for TACGTA, the binding signal in experiment [1] amounted to 1.2; in experiment [2] it was 1.29; in experiment [4], 1.3.

With ACCTCG, the results for the binding signal in experiment [1], in experiment [2] and in experiment [4] were 1.15, 1.26 and 1.2, respectively.

In the case of TCTTCT, the figures for the binding signal in experiment [1], in experiment [2] and in experiment [4] were 1.23, 1.27 and 1.24, respectively.

Consider TACTTA, for which the binding signal in experiment [1] is 1.16; in experiment [2], 1.14; in experiment [4], 1.29.

Regarding GAACCA, the figures for the binding signal in experiment [1], in experiment [2] and in experiment [4] were 0.944, 0.985 and 0.989, respectively.

For CTGGCC, the binding signal in experiment [1] came to 1.29; in experiment [5], 1.23; in experiment [2], 1.13; in experiment [3], 1.15.

For the sequence GTCTAC, the binding signal in experiment [1] worked out at 1.05; in experiment [2], 1.15; in experiment [4] it was 1.07.

Take TACCTC: the binding signal came to 1.19 in experiment [1], 1.25 in experiment [5], 1.25 in experiment [2] and 1.32 in experiment [4].

With ATCGCC, the binding signal in experiment [1] came out at 1.29; in experiment [2] it was 1.36; in experiment [4] it was 1.27.

As for TATTGG, the binding signal in experiment [1] turned out to be 1.15; in experiment [2], 1.24; in experiment [4], 1.2.

With AAAGCG, the binding signal in experiment [1] was found to be 1.09; in experiment [2] it was 1.05; in experiment [4] it was 1.13.

As to GCTAAT, the binding signal in experiment [1] stood at 1.13; in experiment [2] it was 1.1; in experiment [4], 1.23.

As to GCTTCA, the binding signal was 1.34 in experiment [1], 1.26 in experiment [2] and 1.33 in experiment [4].

Turning to ATCACT, the binding signal in experiment [1] worked out at 1.28; in experiment [2] it was 1.28; in experiment [4], 1.16.

In the case of TGCTGA, the binding signal came to 1.01 in experiment [1], 1.1 in experiment [2] and 1.03 in experiment [4].

For the sequence TGGCCT, the binding signal in experiment [1] turned out to be 1.54; in experiment [5], 1.48; in experiment [2] it was 1.47; in experiment [3], 1.27.

Source of the values: PMC7862700.
